This is an account of results in article PMC4559962.

For assay [1], the target named is SUMO (Smt3) (S. cerevisiae) [SUMO: Q12306]. In words: pull-down; SUMO, SUMO-PA or Ub-PA on CNBr-activated Sepharose; purified HA-Wss1 proteins in solution; as Figure 1B but with 1% Triton X-100 (high stringency buffer); western blot with α-HA; o-phenanthroline (OPA) where indicated; both purified. (In western blotting, separated proteins are transferred to a membrane and probed.)

Assay [2] has the same target. Briefly: pull-down; SUMO cross-linked to CNBr-activated Sepharose; purified HA-Wss1 proteins in solution; 150 mM NaCl, 50 mM Tris pH 7.4, 0.1% Triton X-100, 1 hr at 4°C; western blot with α-HA; 10 mg/ml free SUMO or Ub used for competition; both purified.
The target in assay [3] is HA-Wss1 N-terminus (truncated HA-Wss1 construct of Figure 5D) (S. cerevisiae). In words: pull-down; purified HA-Wss1 (full length or truncated) on anti-HA beads with purified His6-Cdc48, GST-Cdc48 or HF-Doa1 (full length or truncated); western blot; both purified.
Assay [4] addresses SUMO (Smt3) (S. cerevisiae) [SUMO: Q12306]. Briefly: pull-down; SUMO or Ub affinity beads; purified HA-Wss1, His6-Cdc48 and HF-Doa1 mixed, or with HA-Wss1 or HF-Doa1 omitted; western blot; both purified.

Results are given in words; binding and its absence hold for the method and conditions named. For some assays here: A result given as binding can be weak or reduced; the word gives no strength. For some assays here: Sequences can lack the tags named with a protein.

B1: HA-Wss1 (recombinant, wild type) (enzyme, UniProt P38838 1-269)
chain: MKTEGIKSPSAKYHDMAGSQRIPHKNPHIQKVAVLQSKPNKEDALNLIKEIAHKVSYLMKENHFKVTNLVEFYPRDQRLLGMNVNHGSKIMLRLRCSTDEFQFLPMECIMGTMLHELTHNLFGPHDKKFYNKLDELIGRQWVIEQRGLYDTFLGNGQRLGGRANLRSNRYPMTGISTNTGIVRKRGKGVKLGSLHPEGISSIDRGNSPRELAAFAAERRYRDDRWCGETKNNKDQIISDNISSSLEVVILDDDDEVLPGDTLIEVIDLT
As for B1, the binding result in assay [1] is listed as “no binding (only with 1% Triton X-100)”; in assay [2], “binds”.

B2: HA-Wss1 SIM1* (VV247,248AA) (enzyme, UniProt P38838 1-269)
chain: MKTEGIKSPSAKYHDMAGSQRIPHKNPHIQKVAVLQSKPNKEDALNLIKEIAHKVSYLMKENHFKVTNLVEFYPRDQRLLGMNVNHGSKIMLRLRCSTDEFQFLPMECIMGTMLHELTHNLFGPHDKKFYNKLDELIGRQWVIEQRGLYDTFLGNGQRLGGRANLRSNRYPMTGISTNTGIVRKRGKGVKLGSLHPEGISSIDRGNSPRELAAFAAERRYRDDRWCGETKNNKDQIISDNISSSLEAAILDDDDEVLPGDTLIEVIDLT
For B2, the binding result in assay [2] was “binds”.

B3: HA-Wss1 WLM* (HE115,116NK) (enzyme, UniProt P38838 1-269)
chain: MKTEGIKSPSAKYHDMAGSQRIPHKNPHIQKVAVLQSKPNKEDALNLIKEIAHKVSYLMKENHFKVTNLVEFYPRDQRLLGMNVNHGSKIMLRLRCSTDEFQFLPMECIMGTMLNKLTHNLFGPHDKKFYNKLDELIGRQWVIEQRGLYDTFLGNGQRLGGRANLRSNRYPMTGISTNTGIVRKRGKGVKLGSLHPEGISSIDRGNSPRELAAFAAERRYRDDRWCGETKNNKDQIISDNISSSLEVVILDDDDEVLPGDTLIEVIDLT
On to B3, for which, in assay [2], the binding entry was “binds”.

B4: HF-Doa1 PFU domain (truncated version) (domain or fragment, UniProt P36037 352-449)
chain: AHQFSNSSWKKVGDVVGAGATGNDKKIEFEGKTYDYVFDVDIEDGKPPLKLPINVSDNPYTAADNFLARYELPMSYRDQVVQFILKNTNGISLDQPND
In the case of B4, the binding result in assay [3] is recorded as “binds”.

B5: HA-Wss1 189–269 (C-terminal fragment, bearing the VIM and SIMs) (domain or fragment, UniProt P38838 189-269)
chain: VKLGSLHPEGISSIDRGNSPRELAAFAAERRYRDDRWCGETKNNKDQIISDNISSSLEVVILDDDDEVLPGDTLIEVIDLT
On to B5, for which, in assay [2], the binding entry is listed as “binds”.

B6: HA-Wss1 1–188 (N-terminal fragment, containing WLM and SHP) (domain or fragment, UniProt P38838 1-188)
chain: MKTEGIKSPSAKYHDMAGSQRIPHKNPHIQKVAVLQSKPNKEDALNLIKEIAHKVSYLMKENHFKVTNLVEFYPRDQRLLGMNVNHGSKIMLRLRCSTDEFQFLPMECIMGTMLHELTHNLFGPHDKKFYNKLDELIGRQWVIEQRGLYDTFLGNGQRLGGRANLRSNRYPMTGISTNTGIVRKRGKG
For the molecule B6, the binding result in assay [2] is reported as “binds”.

B7: his6-Flag (HF)-Doa1 (protein, UniProt P36037 1-715)
chain: MGYQLSATLKGHDQDVRDVVAVDDSKVASVSRDGTVRLWSKDDQWLGTVVYTGQGFLNSVCYDSEKELLLFGGKDTMINGVPLFATSGEDPLYTLIGHQGNVCSLSFQDGVVISGSWDKTAKVWKEGSLVYNLQAHNASVWDAKVVSFSENKFLTASADKTIKLWQNDKVIKTFSGIHNDVVRHLAVVDDGHFISCSNDGLIKLVDMHTGDVLRTYEGHESFVYCIKLLPNGDIVSCGEDRTVRIWSKENGSLKQVITLPAISIWSVDCMSNGDIIVGSSDNLVRIFSQEKSRWASEDEINELSTQVEKSTISSKTIEFDESKLSPYEILQSPGRKEGQIVVVKSPQGTIEAHQFSNSSWKKVGDVVGAGATGNDKKIEFEGKTYDYVFDVDIEDGKPPLKLPINVSDNPYTAADNFLARYELPMSYRDQVVQFILKNTNGISLDQPNDNASSSAVSPSKTSVMKVLPVKQYLIMENYNPDTIFNGIVKINSNEKTFDDEILAQIGGALHDIDESWELLLSFANTIRSNWEIKTPAYDIVRLIVKKLPYSSDIKDYIEEGLGNKNITLTMLTVRILVNCFNNENWGVKLLESNQVYKSIFETIDTEFSQASAKQSQNLAIAVSTLIFNYSALVTKGNSDLELLPIVADAINTKYGPLEEYQECEEAAYRLTVAYGNLATVEPTLRQFANSVTWLANIKRSYGNVPRFKDIFDDLS
With B7, in assay [4], the binding entry is “binds weakly”.
